Assay results as given in the supplement of paper PMC10849652.
Some of the results follow.

The chains behind the UniProt entries cited, without tags or fusion partners. Where a name states a change or a piece, a line headed by the entry shows the natural chain unless it says otherwise.
UniProt Q9C0E2: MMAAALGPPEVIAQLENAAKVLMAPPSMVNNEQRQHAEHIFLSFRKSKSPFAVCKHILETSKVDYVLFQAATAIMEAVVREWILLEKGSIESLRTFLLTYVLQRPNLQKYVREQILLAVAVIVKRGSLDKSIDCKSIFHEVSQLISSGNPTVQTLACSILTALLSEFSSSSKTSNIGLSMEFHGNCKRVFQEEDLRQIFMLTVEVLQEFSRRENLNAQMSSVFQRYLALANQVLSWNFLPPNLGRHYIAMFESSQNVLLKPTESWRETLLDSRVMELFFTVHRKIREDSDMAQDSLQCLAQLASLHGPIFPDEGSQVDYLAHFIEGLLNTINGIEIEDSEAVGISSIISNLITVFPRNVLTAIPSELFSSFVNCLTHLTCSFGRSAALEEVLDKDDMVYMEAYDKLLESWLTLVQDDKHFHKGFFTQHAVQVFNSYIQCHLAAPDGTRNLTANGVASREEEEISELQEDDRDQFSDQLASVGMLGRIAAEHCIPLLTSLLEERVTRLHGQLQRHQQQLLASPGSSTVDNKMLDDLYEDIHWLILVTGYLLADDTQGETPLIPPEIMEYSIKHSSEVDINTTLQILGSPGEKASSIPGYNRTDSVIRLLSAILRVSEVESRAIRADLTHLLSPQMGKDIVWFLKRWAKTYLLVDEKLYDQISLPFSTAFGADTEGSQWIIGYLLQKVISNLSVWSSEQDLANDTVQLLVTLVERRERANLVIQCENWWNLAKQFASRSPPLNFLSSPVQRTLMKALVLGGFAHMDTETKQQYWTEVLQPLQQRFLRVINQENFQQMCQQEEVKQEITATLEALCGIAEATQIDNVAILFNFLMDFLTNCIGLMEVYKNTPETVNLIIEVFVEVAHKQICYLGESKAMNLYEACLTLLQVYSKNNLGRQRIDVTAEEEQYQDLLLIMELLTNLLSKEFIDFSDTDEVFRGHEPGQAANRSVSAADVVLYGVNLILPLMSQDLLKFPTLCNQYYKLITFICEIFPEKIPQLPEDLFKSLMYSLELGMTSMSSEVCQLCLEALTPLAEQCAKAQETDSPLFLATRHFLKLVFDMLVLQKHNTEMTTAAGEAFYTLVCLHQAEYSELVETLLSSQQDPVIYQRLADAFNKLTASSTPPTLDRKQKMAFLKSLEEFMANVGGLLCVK
UniProt Q86U90: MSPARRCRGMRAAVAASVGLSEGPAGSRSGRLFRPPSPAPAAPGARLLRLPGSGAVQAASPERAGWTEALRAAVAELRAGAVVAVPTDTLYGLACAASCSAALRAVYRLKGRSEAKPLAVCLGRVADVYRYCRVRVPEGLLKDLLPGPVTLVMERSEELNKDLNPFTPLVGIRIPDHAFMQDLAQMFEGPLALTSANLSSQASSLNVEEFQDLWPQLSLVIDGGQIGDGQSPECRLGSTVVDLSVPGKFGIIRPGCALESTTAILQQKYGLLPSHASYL
UniProt Q9HBF4: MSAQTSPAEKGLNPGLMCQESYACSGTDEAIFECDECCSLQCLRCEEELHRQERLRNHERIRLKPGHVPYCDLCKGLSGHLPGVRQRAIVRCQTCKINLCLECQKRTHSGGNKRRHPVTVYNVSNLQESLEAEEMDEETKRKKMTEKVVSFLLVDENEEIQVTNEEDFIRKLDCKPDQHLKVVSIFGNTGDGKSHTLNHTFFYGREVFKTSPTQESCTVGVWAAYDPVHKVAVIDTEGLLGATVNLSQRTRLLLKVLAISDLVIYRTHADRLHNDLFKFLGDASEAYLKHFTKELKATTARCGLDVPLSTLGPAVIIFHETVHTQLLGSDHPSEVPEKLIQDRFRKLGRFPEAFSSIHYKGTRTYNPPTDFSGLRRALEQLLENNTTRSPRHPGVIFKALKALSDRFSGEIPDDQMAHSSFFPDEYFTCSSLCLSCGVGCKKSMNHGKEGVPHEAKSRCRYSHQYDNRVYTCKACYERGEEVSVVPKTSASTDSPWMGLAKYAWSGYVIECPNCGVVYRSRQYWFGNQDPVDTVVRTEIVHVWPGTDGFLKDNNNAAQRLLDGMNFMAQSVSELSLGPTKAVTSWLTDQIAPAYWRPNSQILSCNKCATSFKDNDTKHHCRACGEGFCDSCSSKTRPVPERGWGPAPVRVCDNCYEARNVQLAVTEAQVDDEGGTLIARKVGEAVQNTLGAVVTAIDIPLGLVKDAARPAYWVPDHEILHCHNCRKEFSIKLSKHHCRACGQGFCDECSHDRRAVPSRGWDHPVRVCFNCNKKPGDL
UniProt P17028: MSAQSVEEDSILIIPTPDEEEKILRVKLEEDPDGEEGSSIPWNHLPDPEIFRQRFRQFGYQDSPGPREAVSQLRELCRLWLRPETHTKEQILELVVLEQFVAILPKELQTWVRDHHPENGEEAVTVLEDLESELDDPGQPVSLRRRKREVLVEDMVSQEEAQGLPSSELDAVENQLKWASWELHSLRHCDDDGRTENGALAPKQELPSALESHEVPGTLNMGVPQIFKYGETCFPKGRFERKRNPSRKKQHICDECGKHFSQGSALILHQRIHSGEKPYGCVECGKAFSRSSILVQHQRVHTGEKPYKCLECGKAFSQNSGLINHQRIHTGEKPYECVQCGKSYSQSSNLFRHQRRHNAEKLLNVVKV
UniProt O95619, whole entry, looked up: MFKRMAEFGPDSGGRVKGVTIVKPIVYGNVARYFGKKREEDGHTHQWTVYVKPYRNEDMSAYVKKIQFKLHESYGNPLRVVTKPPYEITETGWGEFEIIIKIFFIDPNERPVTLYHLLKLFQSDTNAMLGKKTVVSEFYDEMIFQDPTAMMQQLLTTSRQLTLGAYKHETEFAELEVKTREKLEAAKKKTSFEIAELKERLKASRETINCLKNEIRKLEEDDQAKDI
UniProt Q7Z739: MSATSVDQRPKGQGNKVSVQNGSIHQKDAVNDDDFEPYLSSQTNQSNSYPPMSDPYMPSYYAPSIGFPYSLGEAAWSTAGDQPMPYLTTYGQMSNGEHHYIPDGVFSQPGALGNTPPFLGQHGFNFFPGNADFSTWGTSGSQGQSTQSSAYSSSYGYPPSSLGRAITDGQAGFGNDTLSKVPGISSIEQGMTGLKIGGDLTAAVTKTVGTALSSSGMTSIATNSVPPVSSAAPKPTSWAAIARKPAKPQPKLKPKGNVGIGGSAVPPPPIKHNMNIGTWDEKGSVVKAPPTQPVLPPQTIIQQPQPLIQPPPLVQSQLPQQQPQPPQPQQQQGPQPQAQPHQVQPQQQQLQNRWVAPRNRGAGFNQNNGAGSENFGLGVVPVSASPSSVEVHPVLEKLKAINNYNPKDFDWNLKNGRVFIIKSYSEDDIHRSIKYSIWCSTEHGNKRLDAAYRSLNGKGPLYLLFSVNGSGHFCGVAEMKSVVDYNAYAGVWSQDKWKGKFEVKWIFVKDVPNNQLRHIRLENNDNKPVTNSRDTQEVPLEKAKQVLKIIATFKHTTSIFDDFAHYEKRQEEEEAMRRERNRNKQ
UniProt Q9H0D6: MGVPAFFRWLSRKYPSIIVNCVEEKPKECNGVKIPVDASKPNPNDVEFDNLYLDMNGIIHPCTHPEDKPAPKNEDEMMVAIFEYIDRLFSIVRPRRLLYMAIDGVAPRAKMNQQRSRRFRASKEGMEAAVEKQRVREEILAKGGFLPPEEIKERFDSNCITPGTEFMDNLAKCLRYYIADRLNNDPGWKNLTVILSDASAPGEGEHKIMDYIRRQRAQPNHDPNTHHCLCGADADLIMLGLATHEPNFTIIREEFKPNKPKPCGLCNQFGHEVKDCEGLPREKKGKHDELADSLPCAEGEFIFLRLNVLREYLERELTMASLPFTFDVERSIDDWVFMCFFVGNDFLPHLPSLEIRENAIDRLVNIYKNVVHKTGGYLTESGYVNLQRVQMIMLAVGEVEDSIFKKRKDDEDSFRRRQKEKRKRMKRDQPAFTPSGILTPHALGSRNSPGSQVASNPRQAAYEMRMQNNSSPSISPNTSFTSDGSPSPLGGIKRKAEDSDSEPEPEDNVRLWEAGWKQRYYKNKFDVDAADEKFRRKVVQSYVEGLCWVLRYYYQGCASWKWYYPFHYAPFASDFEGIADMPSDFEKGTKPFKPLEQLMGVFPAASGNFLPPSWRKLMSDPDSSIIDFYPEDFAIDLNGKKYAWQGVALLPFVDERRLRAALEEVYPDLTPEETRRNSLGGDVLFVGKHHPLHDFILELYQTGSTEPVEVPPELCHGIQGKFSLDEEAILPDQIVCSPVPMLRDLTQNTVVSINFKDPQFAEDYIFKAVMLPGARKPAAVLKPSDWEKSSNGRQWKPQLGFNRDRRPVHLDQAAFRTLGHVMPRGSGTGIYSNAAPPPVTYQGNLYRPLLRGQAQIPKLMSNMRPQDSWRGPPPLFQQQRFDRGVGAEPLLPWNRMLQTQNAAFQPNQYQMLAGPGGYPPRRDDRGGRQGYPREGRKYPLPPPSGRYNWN
UniProt Q9Y5A9: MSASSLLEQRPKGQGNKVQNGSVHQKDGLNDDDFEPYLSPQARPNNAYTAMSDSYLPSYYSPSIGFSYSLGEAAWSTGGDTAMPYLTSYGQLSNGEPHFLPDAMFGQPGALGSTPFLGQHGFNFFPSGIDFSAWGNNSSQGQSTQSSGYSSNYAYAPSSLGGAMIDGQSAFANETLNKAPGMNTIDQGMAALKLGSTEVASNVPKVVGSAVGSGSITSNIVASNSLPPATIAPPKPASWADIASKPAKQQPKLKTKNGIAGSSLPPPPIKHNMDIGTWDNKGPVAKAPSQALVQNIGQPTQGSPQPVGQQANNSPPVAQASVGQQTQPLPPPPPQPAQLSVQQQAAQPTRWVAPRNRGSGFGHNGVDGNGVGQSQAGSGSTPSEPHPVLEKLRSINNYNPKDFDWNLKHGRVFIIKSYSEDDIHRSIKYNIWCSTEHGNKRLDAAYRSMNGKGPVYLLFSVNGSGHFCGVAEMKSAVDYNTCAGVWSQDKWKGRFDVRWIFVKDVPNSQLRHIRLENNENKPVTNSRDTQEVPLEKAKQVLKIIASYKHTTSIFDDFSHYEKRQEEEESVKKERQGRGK
UniProt Q7Z3T8: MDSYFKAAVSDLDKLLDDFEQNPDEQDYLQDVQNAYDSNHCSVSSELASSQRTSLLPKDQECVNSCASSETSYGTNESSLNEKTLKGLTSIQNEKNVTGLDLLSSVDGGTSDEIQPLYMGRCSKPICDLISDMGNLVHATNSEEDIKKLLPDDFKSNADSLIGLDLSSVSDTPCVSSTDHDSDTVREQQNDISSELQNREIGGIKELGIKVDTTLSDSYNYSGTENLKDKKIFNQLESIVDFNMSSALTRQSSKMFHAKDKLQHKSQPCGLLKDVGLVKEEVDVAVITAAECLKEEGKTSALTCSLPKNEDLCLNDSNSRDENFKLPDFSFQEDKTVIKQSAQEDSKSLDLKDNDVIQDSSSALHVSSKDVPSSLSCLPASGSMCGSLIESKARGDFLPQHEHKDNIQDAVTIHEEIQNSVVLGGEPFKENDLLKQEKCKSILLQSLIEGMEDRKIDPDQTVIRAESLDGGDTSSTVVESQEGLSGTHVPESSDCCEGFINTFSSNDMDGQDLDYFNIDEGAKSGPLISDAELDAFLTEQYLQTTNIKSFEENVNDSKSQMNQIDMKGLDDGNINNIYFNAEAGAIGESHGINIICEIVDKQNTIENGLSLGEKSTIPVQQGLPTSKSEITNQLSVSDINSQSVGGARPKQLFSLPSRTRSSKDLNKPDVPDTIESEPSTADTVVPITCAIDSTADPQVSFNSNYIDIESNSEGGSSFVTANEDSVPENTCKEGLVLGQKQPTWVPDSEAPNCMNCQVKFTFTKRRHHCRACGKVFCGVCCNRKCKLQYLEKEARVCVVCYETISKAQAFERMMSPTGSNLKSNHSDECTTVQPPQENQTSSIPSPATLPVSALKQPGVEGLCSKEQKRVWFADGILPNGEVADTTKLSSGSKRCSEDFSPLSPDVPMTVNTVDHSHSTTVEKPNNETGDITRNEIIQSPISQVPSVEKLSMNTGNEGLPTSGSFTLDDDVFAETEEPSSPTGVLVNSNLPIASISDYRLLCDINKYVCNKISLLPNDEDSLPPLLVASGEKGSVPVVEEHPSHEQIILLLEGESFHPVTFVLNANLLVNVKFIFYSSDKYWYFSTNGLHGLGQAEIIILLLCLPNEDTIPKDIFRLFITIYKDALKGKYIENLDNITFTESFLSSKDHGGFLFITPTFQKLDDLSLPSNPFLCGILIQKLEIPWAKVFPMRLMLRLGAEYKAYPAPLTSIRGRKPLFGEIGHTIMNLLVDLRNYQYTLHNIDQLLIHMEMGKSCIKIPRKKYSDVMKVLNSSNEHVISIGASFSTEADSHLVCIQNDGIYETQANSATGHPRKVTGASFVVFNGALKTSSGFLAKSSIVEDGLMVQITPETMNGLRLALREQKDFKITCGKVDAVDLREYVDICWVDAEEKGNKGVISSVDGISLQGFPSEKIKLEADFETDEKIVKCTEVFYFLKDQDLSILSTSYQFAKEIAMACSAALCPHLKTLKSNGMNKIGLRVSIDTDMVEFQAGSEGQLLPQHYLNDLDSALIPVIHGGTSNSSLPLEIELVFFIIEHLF

Key:
Assay in all cases: log2 fold change, soluble protein after heating vs DMSO (PISA); higher = thermal stabilisation; K562 cells, 10 uM, 30 min; active = over 0.2 and 3.5 SD of the protein, either way, in both replicates (recomputed)
[1] = compound: COC1=CC=C(C=C1)CN2C=CC3=C2C=C(C=C3)C(=O)NO
Summary of the method: (§1)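 K562 cells at 2×10^6 cells/mL were exposed to 10 μM compound for 30 min, then aliquots were heated for 3 min across 48°C-58°C, pooled, and extracted in PBS containing 0.5% NP-40 at 4°C. The supernatant after 21,000xg for 90 min was taken as soluble protein and measured by TMTpro 16plex LC-MS/MS with channel sums equalised. Thermal stability is reported relative to control samples, with values from duplicates. Fold changes are given on a log2 scale.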

filanesib = compound: CON(C)C(=O)N1N=C(c2cc(F)ccc2F)S[C@@]1(CCCN)c1ccccc1 [filanesib]
Summary of the method: as §1

zotarolimus = compound: CO[C@H]1C[C@@H]2CC[C@@H](C)[C@@](O)(O2)C(=O)C(=O)N2CCCC[C@H]2C(=O)O[C@H]([C@H](C)C[C@@H]2CC[C@H](n3cnnn3)[C@H](OC)C2)CC(=O)[C@H](C)/C=C(\C)[C@@H](O)[C@@H](OC)C(=O)[C@H](C)C[C@H](C)/C=C/C=C/C=C/1C [zotarolimus]
Summary of the method: as §1

idasanutlin = compound: COc1cc(C(=O)O)ccc1NC(=O)[C@@H]1N[C@@H](CC(C)(C)C)[C@](C#N)(c2ccc(Cl)cc2F)[C@H]1c1cccc(Cl)c1F [idasanutlin]
Summary of the method: as §1

alisertib = compound: COc1cc(Nc2ncc3c(n2)-c2ccc(Cl)cc2C(c2c(F)cccc2OC)=NC3)ccc1C(=O)O [alisertib]
Summary of the method: as §1

[2] = compound: COc1cc2nc(-c3cc(F)ccc3O)nc(N[C@@H]3CNC[C@H]3C(C)(C)O)c2cc1OC
Summary of the method: as §1

gefitinib = compound: COc1cc2ncnc(Nc3ccc(F)c(Cl)c3)c2cc1OCCCN1CCOCC1 [gefitinib]
Summary of the method: as §1

[3] = compound: COc1cccc2cc(-c3nc([C@H]4CC[C@H](C(=O)O)CC4)n4ncnc(N)c34)[nH]c12
Summary of the method: as §1

lapatinib = compound: CS(=O)(=O)CCNCc1ccc(-c2ccc3ncnc(Nc4ccc(OCc5cccc(F)c5)c(Cl)c4)c3c2)o1 [lapatinib]
Summary of the method: as §1

pictilisib = compound: CS(=O)(=O)N1CCN(Cc2cc3nc(-c4cccc5[nH]ncc45)nc(N4CCOCC4)c3s2)CC1 [pictilisib]
Summary of the method: as §1

[4] = compound: CS(=O)(=O)c1ccc(-c2cnc(N)c(C(=O)Nc3ccccc3)n2)cc1
Summary of the method: as §1

crizotinib = compound: C[C@@H](Oc1cc(-c2cnn(C3CCNCC3)c2)cnc1N)c1c(Cl)ccc(F)c1Cl [crizotinib]
Summary of the method: as §1

[5] = compound: C[C@@H]1COCCN1C2=NC(=NC(=C2)C3(CC3)S(=O)(=O)C)C4=C5C=CNC5=CC=C4
Summary of the method: as §1

[6] = compound: C[C@H](C1=CC=C(C=C1)C(=O)NC2=C3C=CNC3=NC=C2)N
Summary of the method: as §1

duvelisib = compound: C[C@H](Nc1ncnc2nc[nH]c12)c1cc2cccc(Cl)c2c(=O)n1-c1ccccc1 [duvelisib]
Summary of the method: as §1

gandotinib = compound: Cc1cc(Nc2cc(CN3CCOCC3)c3nc(C)c(Cc4ccc(Cl)cc4F)n3n2)n[nH]1 [gandotinib]
Summary of the method: as §1

tozasertib = compound: Cc1cc(Nc2cc(N3CCN(C)CC3)nc(Sc3ccc(NC(=O)C4CC4)cc3)n2)n[nH]1 [tozasertib]
Summary of the method: as §1

[7] = compound: Cc1cc(SCc2sc(-c3ccc(C(F)(F)F)cc3)nc2C)ccc1OCC(=O)O
Summary of the method: as §1

doramapimod = compound: Cc1ccc(-n2nc(C(C)(C)C)cc2NC(=O)Nc2ccc(OCCN3CCOCC3)c3ccccc23)cc1 [doramapimod]
Summary of the method: as §1

ispinesib = compound: Cc1ccc(C(=O)N(CCCN)[C@@H](c2nc3cc(Cl)ccc3c(=O)n2Cc2ccccc2)C(C)C)cc1 [ispinesib]
Summary of the method: as §1

Measured: log2 fold change

XPO4 (UniProt Q9C0E2)
inactive: [1] -0.005 | filanesib -0.069 | zotarolimus -0.012 | idasanutlin -0.054 | alisertib -0.027 | [2] -0.012 | gefitinib -0.03 | [3] 0.057 | lapatinib 0.012 | pictilisib 0.029 | [4] 0.034 | crizotinib 0.012 | [5] 0.06 | [6] -0.059 | duvelisib 0.036 | gandotinib -0.116 | tozasertib 0.053 | [7] 0 | doramapimod -0.036 | ispinesib -0.009

ZCCHC3 (UniProt Q9NUD5)
inactive: [1] 0.112 | filanesib 0.162 | zotarolimus 0.017 | idasanutlin 0.229 | alisertib -0.025 | [2] -0.038 | gefitinib -0.047 | [3] -0.116 | lapatinib 0.081 | pictilisib -0.135 | [4] -0.109 | crizotinib 0.009 | [5] -0.31 | [6] 0.294 | duvelisib -0.103 | gandotinib 0.199 | tozasertib 0.027 | [7] -0.022 | doramapimod -0.058 | ispinesib -0.082

YKT6 (UniProt O15498)
inactive: [1] -0.025 | filanesib 0.007 | zotarolimus 0.016 | idasanutlin 0.023 | alisertib -0.042 | [2] 0.029 | gefitinib 0.005 | [3] 0.027 | lapatinib -0.022 | pictilisib 0.02 | [4] 0.034 | crizotinib 0.039 | [5] 0.009 | [6] -0.022 | duvelisib 0.082 | gandotinib 0.025 | tozasertib -0.005 | [7] -0.008 | doramapimod -0.033 | ispinesib 0.086

YWHAE (UniProt P62258)
inactive: [1] -0.023 | filanesib -0.026 | zotarolimus -0.013 | idasanutlin -0.006 | alisertib -0.073 | [2] 0.013 | gefitinib 0.005 | [3] 0.033 | lapatinib -0.023 | pictilisib 0.014 | [4] -0.013 | crizotinib 0.038 | [5] 0.013 | [6] -0.037 | duvelisib 0 | gandotinib 0.011 | tozasertib -0.021 | [7] -0.06 | doramapimod -0.014 | ispinesib -0.013

YRDC (UniProt Q86U90)
inactive: [1] 0.031 | filanesib -0.046 | zotarolimus -0.016 | idasanutlin -0.061 | alisertib -0.009 | [2] -0.031 | gefitinib -0.002 | [3] 0.033 | lapatinib -0.033 | pictilisib 0.002 | [4] 0.031 | crizotinib -0.063 | [5] 0.055 | [6] -0.079 | duvelisib 0.069 | gandotinib -0.048 | tozasertib -0.006 | [7] -0.013 | doramapimod -0.008 | ispinesib -0.005

ZFYVE1 (UniProt Q9HBF4)
inactive: [1] 0.037 | filanesib 0.099 | zotarolimus -0.016 | idasanutlin -0.133 | alisertib -0.048 | [2] 0.206 | gefitinib 0.014 | [3] 0.067 | lapatinib -0.141 | pictilisib 0.043 | [4] -0.028 | crizotinib 0.007 | [5] -0.052 | [6] 0.007 | duvelisib 0.02 | gandotinib -0.082 | tozasertib 0.018 | [7] 0.003 | doramapimod 0.022 | ispinesib -0.071

XXYLT1 (UniProt Q8NBI6)
inactive: [1] -0.021 | filanesib -0.042 | zotarolimus 0 | idasanutlin -0.063 | alisertib -0.007 | [2] -0.014 | gefitinib -0.002 | [3] 0.131 | lapatinib 0.059 | pictilisib 0.008 | [4] 0.009 | crizotinib -0.045 | [5] 0.019 | [6] 0.048 | duvelisib 0.003 | gandotinib 0.037 | tozasertib 0.014 | [7] 0.028 | doramapimod 0.045 | ispinesib 0.002

ZNF24 (UniProt P17028)
inactive: [1] -0.05 | filanesib 0.131 | zotarolimus -0.021 | idasanutlin 0.158 | alisertib -0.272 | [2] -0.012 | gefitinib -0.163 | [3] -0.156 | lapatinib 0.179 | pictilisib -0.069 | [4] -0.081 | crizotinib 0.004 | [5] -0.37 | [6] 0.198 | duvelisib -0.061 | gandotinib 0.22 | tozasertib 0.036 | [7] 0.03 | doramapimod 0.165 | ispinesib -0.471

YEATS4 (UniProt O95619)
inactive: [1] -0.073 | filanesib 0.022 | zotarolimus -0.019 | idasanutlin -0.025 | alisertib -0.032 | [2] 0.158 | gefitinib -0.028 | [3] -0.05 | lapatinib -0.084 | pictilisib -0.005 | [4] -0.044 | crizotinib 0.001 | [5] 0.009 | [6] -0.013 | duvelisib -0.011 | gandotinib -0.031 | tozasertib -0.016 | [7] -0.058 | doramapimod 0.041 | ispinesib 0.085

XPO7 (UniProt E7ESC6)
inactive: [1] 0.034 | filanesib -0.077 | zotarolimus 0.009 | idasanutlin -0.088 | alisertib -0.067 | [2] -0.003 | gefitinib 0.004 | [3] 0.019 | lapatinib 0.014 | pictilisib 0.023 | [4] 0.042 | crizotinib 0.014 | [5] 0.059 | [6] -0.086 | duvelisib 0.025 | gandotinib -0.082 | tozasertib 0.026 | [7] -0.012 | doramapimod -0.049 | ispinesib 0.023

YTHDF3 (UniProt Q7Z739)
inactive: [1] 0.052 | filanesib -0.004 | zotarolimus 0.042 | idasanutlin -0.052 | alisertib -0.021 | [2] 0.032 | gefitinib 0.002 | [3] -0.001 | lapatinib 0.039 | pictilisib 0.025 | [4] 0.011 | crizotinib -0.02 | [5] -0.015 | [6] -0.018 | duvelisib 0.014 | gandotinib -0.046 | tozasertib 0.001 | [7] 0.039 | doramapimod -0.005 | ispinesib -0.041

ZC3H4 (UniProt Q9UPT8)
inactive: [1] -0.06 | filanesib 0.276 | zotarolimus -0.052 | idasanutlin 0.117 | alisertib -0.121 | [2] -0.011 | gefitinib -0.029 | [3] -0.139 | lapatinib 0.205 | pictilisib 0.03 | [4] -0.032 | crizotinib 0.012 | [5] -0.324 | [6] 0.288 | duvelisib -0.156 | gandotinib 0.287 | tozasertib -0.048 | [7] -0.008 | doramapimod 0.081 | ispinesib -0.062

4 consecutive entries already listed, for reference:
YEATS4 (UniProt O95619)
inactive: [1] -0.073 | filanesib 0.022 | zotarolimus -0.019 | idasanutlin -0.025 | alisertib -0.032 | [2] 0.158 | gefitinib -0.028 | [3] -0.05 | lapatinib -0.084 | pictilisib -0.005 | [4] -0.044 | crizotinib 0.001 | [5] 0.009 | [6] -0.013 | duvelisib -0.011 | gandotinib -0.031 | tozasertib -0.016 | [7] -0.058 | doramapimod 0.041 | ispinesib 0.085

XPO7 (UniProt E7ESC6)
inactive: [1] 0.034 | filanesib -0.077 | zotarolimus 0.009 | idasanutlin -0.088 | alisertib -0.067 | [2] -0.003 | gefitinib 0.004 | [3] 0.019 | lapatinib 0.014 | pictilisib 0.023 | [4] 0.042 | crizotinib 0.014 | [5] 0.059 | [6] -0.086 | duvelisib 0.025 | gandotinib -0.082 | tozasertib 0.026 | [7] -0.012 | doramapimod -0.049 | ispinesib 0.023

YTHDF3 (UniProt Q7Z739)
inactive: [1] 0.052 | filanesib -0.004 | zotarolimus 0.042 | idasanutlin -0.052 | alisertib -0.021 | [2] 0.032 | gefitinib 0.002 | [3] -0.001 | lapatinib 0.039 | pictilisib 0.025 | [4] 0.011 | crizotinib -0.02 | [5] -0.015 | [6] -0.018 | duvelisib 0.014 | gandotinib -0.046 | tozasertib 0.001 | [7] 0.039 | doramapimod -0.005 | ispinesib -0.041

ZC3H4 (UniProt Q9UPT8)
inactive: [1] -0.06 | filanesib 0.276 | zotarolimus -0.052 | idasanutlin 0.117 | alisertib -0.121 | [2] -0.011 | gefitinib -0.029 | [3] -0.139 | lapatinib 0.205 | pictilisib 0.03 | [4] -0.032 | crizotinib 0.012 | [5] -0.324 | [6] 0.288 | duvelisib -0.156 | gandotinib 0.287 | tozasertib -0.048 | [7] -0.008 | doramapimod 0.081 | ispinesib -0.062

Later entries

ZDHHC3 isoform 2 (UniProt Q9NYG2)
inactive: [1] 0.007 | filanesib -0.042 | zotarolimus -0.056 | idasanutlin 0.033 | alisertib 0.014 | [2] -0.072 | gefitinib -0.017 | [3] 0.103 | lapatinib -0.111 | pictilisib 0.021 | [4] 0.04 | crizotinib -0.066 | [5] -0.002 | [6] -0.047 | duvelisib 0.07 | gandotinib -0.107 | tozasertib -0.018 | [7] 0.004 | doramapimod 0.017 | ispinesib -0.062

XRN2 (UniProt Q9H0D6)
inactive: [1] -0.066 | filanesib 0.036 | zotarolimus -0.027 | idasanutlin 0.042 | alisertib -0.027 | [2] 0.015 | gefitinib -0.012 | [3] 0.027 | lapatinib 0.049 | pictilisib -0.016 | [4] -0.002 | crizotinib -0.009 | [5] -0.031 | [6] 0.131 | duvelisib 0.02 | gandotinib -0.006 | tozasertib -0.031 | [7] 0.006 | doramapimod 0 | ispinesib -0.009

YTHDF2 (UniProt Q9Y5A9)
inactive: [1] 0.015 | filanesib 0.045 | zotarolimus -0.007 | idasanutlin -0.032 | alisertib -0.066 | [2] 0.001 | gefitinib -0.068 | [3] 0.005 | lapatinib -0.01 | pictilisib 0.04 | [4] 0.016 | crizotinib -0.002 | [5] -0.08 | [6] 0.006 | duvelisib -0.017 | gandotinib 0.045 | tozasertib -0.002 | [7] 0.034 | doramapimod -0.018 | ispinesib -0.081

ZFYVE16 (UniProt Q7Z3T8)
inactive: [1] -0.078 | filanesib -0.031 | zotarolimus 0.017 | idasanutlin -0.014 | alisertib 0.02 | [2] 0.054 | gefitinib 0.009 | [3] 0.028 | lapatinib 0.006 | pictilisib 0.073 | [4] 0.034 | crizotinib -0.022 | [5] 0.067 | [6] -0.066 | duvelisib 0.002 | gandotinib -0.009 | tozasertib -0.007 | [7] 0.012 | doramapimod 0.031 | ispinesib -0.035
